Cell number after 72 h of treatment

Data from the primary screen of doi:10.1371/journal.pone.0140310, rounded.

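Human melanoma cell lines in 1,536-well plates were treated with two drugs together for 72 h, then fixed, stained and imaged. Values are the number of DAPI-stained nuclei as a percentage of the DMSO control: 100 is no effect, lower means fewer cells. Every drug was used at one fixed concentration, the higher of two screened. These are primary screening values without error estimates.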
An unselected part of the screen is shown.

Drugs:
ENMD-2076 (0.2 µM): Cc1cc(Nc2cc(N3CCN(C)CC3)nc(/C=C/c3ccccc3)n2)n[nH]1
palbociclib (0.2 µM): CC(=O)c1c(C)c2cnc(Nc3ccc(N4CCNCC4)cn3)nc2n(C2CCCC2)c1=O
tipifarnib (0.05 µM): Cn1cncc1[C@@](N)(c1ccc(Cl)cc1)c1ccc2c(c1)c(-c1cccc(Cl)c1)cc(=O)n2C
ZM336372 (10 µM): Cc1ccc(NC(=O)c2cccc(N(C)C)c2)cc1NC(=O)c1ccc(O)cc1
erlotinib (4 µM): C#Cc1cccc(Nc2ncnc3cc(OCCOC)c(OCCOC)cc23)c1
SU6656 (2 µM): CN(C)S(=O)(=O)c1ccc2c(c1)/C(=C/c1cc3c([nH]1)CCCC3)C(=O)N2
perifosine (2 µM): CCCCCCCCCCCCCCCCCCOP(=O)([O-])OC1CC[N+](C)(C)CC1
NVP-BEZ235 (0.02 µM): Cn1c(=O)n(-c2ccc(C(C)(C)C#N)cc2)c2c3cc(-c4cnc5ccccc5c4)ccc3ncc21
lenalidomide (5 µM): Nc1cccc2c1CN(C1CCC(=O)NC1=O)C2=O (stereo not given)
RKI-983 (2 µM): C[C@@H](N)c1ccc(C(=O)Nc2ccnc3[nH]ccc23)cc1
MK-1775 (0.1 µM): C=CCn1c(=O)c2cnc(Nc3ccc(N4CCN(C)CC4)cc3)nc2n1-c1cccc(C(C)(C)O)n1
VX-702 (2 µM): NC(=O)c1ccc(N(C(N)=O)c2c(F)cccc2F)nc1-c1ccc(F)cc1F
PF-562271 (0.4 µM): CN(c1ncccc1CNc1nc(Nc2ccc3c(c2)CC(=O)N3)ncc1C(F)(F)F)S(C)(=O)=O
bortezomib (0.005 µM): CC(C)C[C@H](NC(=O)[C@H](Cc1ccccc1)NC(=O)c1cnccn1)B(O)O
CP-690550 (5 µM): C[C@@H]1CCN(C(=O)CC#N)C[C@@H]1N(C)c1ncnc2[nH]ccc12
IMD-0354 (0.08 µM): O=C(Nc1cc(C(F)(F)F)cc(C(F)(F)F)c1)c1cc(Cl)ccc1O

Drugs	WM3619	WM451Lu	COLO 792
bortezomib + perifosine	4.9	24.9	32.6
erlotinib + IMD-0354	68.5	83.8	50.5
erlotinib + RKI-983	96.3	83.6	32.2
lenalidomide + ENMD-2076	111	101	74.9
VX-702 + tipifarnib	80.6	76.2	101
NVP-BEZ235 + tipifarnib	63.2	69.5	52.1
bortezomib + MK-1775	3.5	32.2	34.2
ENMD-2076 + IMD-0354	107	85.9	73.5
bortezomib + RKI-983	1.7	15.2	26.1
NVP-BEZ235 + bortezomib	10.6	29.3	32.1
lenalidomide + NVP-BEZ235	66.1	83.1	49.1
IMD-0354 + perifosine	95.4	74.0	86.0
bortezomib + erlotinib	10.6	24.9	26.2
bortezomib + palbociclib	10.0	27.8	34.8
PF-562271 + palbociclib	48.7	43.5	50.7
lenalidomide + SU6656	91.9	74.4	72.4
erlotinib + ZM336372	73.6	136	50.6
IMD-0354 + ZM336372	121	101	86.1
PF-562271 + NVP-BEZ235	73.0	57.1	51.1
VX-702 + lenalidomide	114	83.8	93.5
NVP-BEZ235 + MK-1775	29.0	71.8	32.4
CP-690550 + RKI-983	128	77.3	71.0
VX-702 + bortezomib	3.5	23.3	29.0

Some entries from above, unchanged:

- IMD-0354 + ZM336372 | WM3619: 121; WM451Lu: 101; COLO 792: 86.1
- NVP-BEZ235 + MK-1775 | WM3619: 29.0; WM451Lu: 71.8; COLO 792: 32.4